{"source": "PubChem BioAssay AID743121 – NCATS, 2013", "aim": "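Knock-downs that sensitise breast cancer cells to camptothecin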 (primary screen)", "cells": "MDA-MB-231 cells, a human breast cancer line", "reagents": "single siRNA against human genes, 20 nM siRNA (0.8 pmol per well)", "timing": "120 h (drug added 48 h after transfection, read 72 h later)", "challenge": "camptothecin 20 nM (about EC30) for 72 h; vehicle 0.1% DMSO in parallel plates", "read-out": "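CellTiter-Glo ATP signal, scaled to control siRNA as percent viability; sensitisation given as log2 of untreated divided by camptothecin-treated viability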", "scale": "log2 vehicle/camptothecin viability: higher = stronger sensitisation to camptothecin; viability with camptothecin: higher = more viable cells", "units": "viability with camptothecin in % of control", "hit rule": "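Each gene scored by redundant siRNA activity (RSA) over its individual siRNA ratios; a gene is called active at p < 0.001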", "note": "The whole screen tested about 26,000 reagents; below is a part drawn at random. 167 of all reagents (0.63%) were called active. 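Calls are per gene from RSA p-values that are not deposited; an individual active-marked siRNA can sensitise only weakly.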 Entries without a mark were called inactive. The numbers tell different reagents against one gene apart. Not all columns of the deposit are shown."}
The first 3 entries, to show the layout:
{"Gene": "CD200R1L (GeneID 344807)", "reagent": 1, "log2 vehicle/camptothecin viability": 0.281, "viability with camptothecin": 56.4}
{"Gene": "CD200R1L (GeneID 344807)", "reagent": 2, "log2 vehicle/camptothecin viability": -0.338, "viability with camptothecin": 75.8}
{"Gene": "CD200R1L (GeneID 344807)", "reagent": 3, "log2 vehicle/camptothecin viability": -0.274, "viability with camptothecin": 120}

Results, from the first entry:
{"Gene": "CD200R1L (GeneID 344807)", "reagent": 1, "log2 vehicle/camptothecin viability": 0.281, "viability with camptothecin": 56.4}
{"Gene": "CD200R1L (GeneID 344807)", "reagent": 2, "log2 vehicle/camptothecin viability": -0.338, "viability with camptothecin": 75.8}
{"Gene": "CD200R1L (GeneID 344807)", "reagent": 3, "log2 vehicle/camptothecin viability": -0.274, "viability with camptothecin": 120}
{"Gene": "FAM53B (GeneID 9679)", "reagent": 1, "log2 vehicle/camptothecin viability": 0.124, "viability with camptothecin": 57}
{"Gene": "FAM53B (GeneID 9679)", "reagent": 2, "log2 vehicle/camptothecin viability": -0.143, "viability with camptothecin": 82.5}
{"Gene": "FAM53B (GeneID 9679)", "reagent": 3, "log2 vehicle/camptothecin viability": -0.0606, "viability with camptothecin": 99.3}
{"Gene": "FAM53B (GeneID 9679)", "reagent": 4, "log2 vehicle/camptothecin viability": 0.465, "viability with camptothecin": 32.9}
{"Gene": "PITRM1 (GeneID 10531)", "reagent": 1, "log2 vehicle/camptothecin viability": 0.11, "viability with camptothecin": 96.7}
{"Gene": "PITRM1 (GeneID 10531)", "reagent": 2, "log2 vehicle/camptothecin viability": -0.145, "viability with camptothecin": 88.5}
{"Gene": "PITRM1 (GeneID 10531)", "reagent": 3, "log2 vehicle/camptothecin viability": 0.671, "viability with camptothecin": 56.6}
{"Gene": "PITRM1 (GeneID 10531)", "reagent": 4, "log2 vehicle/camptothecin viability": 0.0194, "viability with camptothecin": 47.4}
{"Gene": "DHFR (GeneID 1719)", "reagent": 1, "log2 vehicle/camptothecin viability": -0.221, "viability with camptothecin": 65.3}
{"Gene": "DHFR (GeneID 1719)", "reagent": 2, "log2 vehicle/camptothecin viability": -0.319, "viability with camptothecin": 112}
{"Gene": "DHFR (GeneID 1719)", "reagent": 3, "log2 vehicle/camptothecin viability": -0.399, "viability with camptothecin": 103}
{"Gene": "DHFR (GeneID 1719)", "reagent": 4, "log2 vehicle/camptothecin viability": -0.344, "viability with camptothecin": 92.4}
{"Gene": "SATB1 (GeneID 6304)", "reagent": 1, "log2 vehicle/camptothecin viability": -0.133, "viability with camptothecin": 87.2}
{"Gene": "SATB1 (GeneID 6304)", "reagent": 2, "log2 vehicle/camptothecin viability": -0.0072, "viability with camptothecin": 80.6}
{"Gene": "SATB1 (GeneID 6304)", "reagent": 3, "log2 vehicle/camptothecin viability": 0.157, "viability with camptothecin": 28.8}
{"Gene": "SATB1 (GeneID 6304)", "reagent": 4, "log2 vehicle/camptothecin viability": 0.0687, "viability with camptothecin": 65.8}
{"Gene": "PRPF6 (GeneID 24148)", "reagent": 1, "log2 vehicle/camptothecin viability": -0.641, "viability with camptothecin": 54.9}
{"Gene": "PRPF6 (GeneID 24148)", "reagent": 2, "log2 vehicle/camptothecin viability": 0.0907, "viability with camptothecin": 13.1}
{"Gene": "PRPF6 (GeneID 24148)", "reagent": 3, "log2 vehicle/camptothecin viability": -0.769, "viability with camptothecin": 44.7}
{"Gene": "PTPMT1 (GeneID 114971)", "reagent": 1, "log2 vehicle/camptothecin viability": -0.0936, "viability with camptothecin": 22.5}
{"Gene": "PTPMT1 (GeneID 114971)", "reagent": 2, "log2 vehicle/camptothecin viability": 0.353, "viability with camptothecin": 55.5}
{"Gene": "PTPMT1 (GeneID 114971)", "reagent": 3, "log2 vehicle/camptothecin viability": -0.505, "viability with camptothecin": 91.4}
{"Gene": "PTPMT1 (GeneID 114971)", "reagent": 4, "log2 vehicle/camptothecin viability": -0.232, "viability with camptothecin": 6.84}
{"Gene": "BUB1B (GeneID 701)", "reagent": 1, "log2 vehicle/camptothecin viability": -0.526, "viability with camptothecin": 86.9}
{"Gene": "BUB1B (GeneID 701)", "reagent": 2, "log2 vehicle/camptothecin viability": 0.0311, "viability with camptothecin": 59}
{"Gene": "BUB1B (GeneID 701)", "reagent": 3, "log2 vehicle/camptothecin viability": -0.143, "viability with camptothecin": 77}
{"Gene": "BUB1B (GeneID 701)", "reagent": 4, "log2 vehicle/camptothecin viability": 1.47, "viability with camptothecin": 20.8}
{"Gene": "PTPRT (GeneID 11122)", "reagent": 1, "log2 vehicle/camptothecin viability": -0.448, "viability with camptothecin": 104}
{"Gene": "PTPRT (GeneID 11122)", "reagent": 2, "log2 vehicle/camptothecin viability": -0.12, "viability with camptothecin": 54.8}
{"Gene": "PTPRT (GeneID 11122)", "reagent": 3, "log2 vehicle/camptothecin viability": 1.17, "viability with camptothecin": 18.5}
{"Gene": "PTPRT (GeneID 11122)", "reagent": 4, "log2 vehicle/camptothecin viability": -0.107, "viability with camptothecin": 75}
{"Gene": "SIAH1 (GeneID 6477)", "reagent": 1, "log2 vehicle/camptothecin viability": 0.164, "viability with camptothecin": 84.1}
{"Gene": "SIAH1 (GeneID 6477)", "reagent": 2, "log2 vehicle/camptothecin viability": -0.057, "viability with camptothecin": 78.4}
{"Gene": "SIAH1 (GeneID 6477)", "reagent": 3, "log2 vehicle/camptothecin viability": -0.503, "viability with camptothecin": 60.5}
